Source: patent US5968920A, “Compounds having a benzisoselen-azoline and -azine structure, method for preparing same and therapeutic uses thereof” (Oxis Isle of Man, Limited, priority 1994, dated 1999)
For some assays here: At least one read-out could not be matched to a standard name with certainty. For some assays here: At least one structure is not confirmed: it was looked up by name or label, or the drawing left a doubt.

Assays:
Format in all cases: biochemical
[1] = Glutathione peroxidase activity, hydrogen peroxide; conditions: compound 20 μM, pH = 7.3, 37° C., [GSH] = 2 mM
Experimental: (§1) To 1.5 ml of HEPES buffer, 50 mM, pH=7.3, containing 0.2 mM of DTPA, 0.144 mM of NADPH, 2.2 mM of reduced glutathione and 1.1 U/ml of glutathione disulfide reductase, pre-equilibrated for 2 minutes at 37° C., 100 μl of an ethanolic mother solution of the compound to be tested or 100 μl of absolute ethanol (blank) was added. Each compound was tested at a final concentration of 20 μM.
(§2) Subsequently, 50 μl of the following was added:
or hydrogen peroxide (H2 O2), 1.6 mM in ultrapure water;
(§3) or the hydroperoxide of linoleic acid (18:2-OOH) prepared using soya lipoxygenase (see M. O. Funk et al., Lipids, (1976), 11, pp 113-117), 3.3 mM in a water/methanol mixture, 85/15 (V/V). The glutathione peroxidase activity was measured at 37° C. by measuring the reduction in absorbance at 340 nm over 5 minutes. The initial enzymatic rate or activity was proportional to the slope of the plot of absorbance against time.
(§4) They are expressed in nmoles of hydroperoxide reduced per minute.

[2] = Glutathione peroxidase activity, t-BuOOH as hydroperoxide; conditions: compound 20 μM, pH = 7.3, 37° C., [GSH] = 2 mM
Experimental: as §1, §2
tertiobutyl hydroperoxide (t-BuOOH), 6.6 mM in ultrapure water;
as §3, §4

[3] = test system: ferric cytochrome c; test: Reducing activity by monoelectronic transfer (reduction of ferric cytochrome c with GSH); conditions: compound 10 μM; GSH 250 μM; pH=7.3; 37° C.; rate relative to GSH alone; 15 min
[4] = Glutathione peroxidase activity, linoleic acid hydroperoxide; conditions: compound 20 μM, pH = 7.3, 37° C., [GSH] = 2 mM
Experimental: as §1, §2, §3, §4

CC1(C)N[Se]c2c(F)cccc21 [BXT-51076, 3,3-dimethyl-7-fluoro-benzisoselenazoline]
Glutathione peroxidase activity, H2 O2 [1]: 6.6 nmoles of hydroperoxide reduced/min | Glutathione peroxidase activity, t--BuOOH [2]: 4.5 nmoles of hydroperoxide reduced/min

CC(=O)N1[Se]c2ccccc2C1(C)C [BXT-51057, 2-acetyl-3,3-dimethyl-benzisoselenazoline]
V/VGSH [3]: 1.5

CCN1[Se]c2ccccc2C1(C)C [BXT-51058, 3,3-dimethyl-2-ethyl-benzisoselenazoline]
Glutathione peroxidase activity, H2 O2 [1]: 2.1 nmoles of hydroperoxide reduced/min | Glutathione peroxidase activity, 18:2-OOH [4]: 22.9 nmoles of hydroperoxide reduced/min | Glutathione peroxidase activity, t--BuOOH [2]: 3.1 nmoles of hydroperoxide reduced/min

CC1(C)N[Se](=O)c2ccccc21 (centres unmarked) [BXT-51059]
V/VGSH [3]: 2.9

CC1(C)N[Se]c2ccccc21 [BXT-51056, 3,3-dimethyl-benzisoselenazoline]
V/VGSH [3]: 4.8
